No constants are given. Whether binding was seen depends on the method and setting. Binding seen in cells or lysates may run through a third protein. Some binding calls cover weakened binding; strength is not graded here.
Molecular target: T1, VPS18, endogenous in HeLa cells (human (endogenous in HeLa)) (UniProt Q9P253)
T1 sequence: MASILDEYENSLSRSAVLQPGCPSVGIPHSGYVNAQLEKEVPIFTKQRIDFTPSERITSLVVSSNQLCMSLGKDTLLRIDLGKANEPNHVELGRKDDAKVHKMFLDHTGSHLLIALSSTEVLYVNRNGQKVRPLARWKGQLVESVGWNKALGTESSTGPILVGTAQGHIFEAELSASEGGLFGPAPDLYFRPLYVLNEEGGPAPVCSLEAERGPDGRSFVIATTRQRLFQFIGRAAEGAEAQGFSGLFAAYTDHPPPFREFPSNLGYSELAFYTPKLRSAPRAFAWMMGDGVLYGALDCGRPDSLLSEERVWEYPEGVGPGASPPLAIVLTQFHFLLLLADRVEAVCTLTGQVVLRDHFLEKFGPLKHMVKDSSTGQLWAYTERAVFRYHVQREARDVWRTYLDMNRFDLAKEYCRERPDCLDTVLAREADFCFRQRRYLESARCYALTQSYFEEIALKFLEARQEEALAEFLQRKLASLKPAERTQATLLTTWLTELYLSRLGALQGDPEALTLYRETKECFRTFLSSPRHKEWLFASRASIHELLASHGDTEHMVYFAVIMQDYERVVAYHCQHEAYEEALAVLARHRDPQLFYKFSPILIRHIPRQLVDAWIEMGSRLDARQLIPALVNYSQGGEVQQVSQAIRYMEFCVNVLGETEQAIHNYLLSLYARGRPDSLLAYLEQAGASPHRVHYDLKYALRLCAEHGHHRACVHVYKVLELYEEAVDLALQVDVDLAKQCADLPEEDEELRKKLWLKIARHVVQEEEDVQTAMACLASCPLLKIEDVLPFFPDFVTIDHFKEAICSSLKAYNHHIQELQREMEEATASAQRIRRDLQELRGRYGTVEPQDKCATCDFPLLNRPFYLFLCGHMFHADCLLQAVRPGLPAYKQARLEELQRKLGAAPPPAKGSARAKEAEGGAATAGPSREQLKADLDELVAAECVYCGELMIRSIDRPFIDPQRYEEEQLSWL
Assay: co-IP; endogenous proteins of HeLa lysate (NP-40 lysis buffer); IP with anti-ZNRF2, anti-VPS18 or control IgG on magnetic protein G-Sepharose, blots with anti-ZNRF2 or anti-VPS18

B1: ZNRF2, endogenous in HeLa cells (enzyme, UniProt Q8NHG8 1-242)
chain: MGAKQSGPAAANGRTRAYSGSDLPSSSSGGANGTAGGGGGARAAAAGRFPAQVPSAHQPSASGGAAAAAAAPAAPAAPRSRSLGGAVGSVASGARAAQSPFSIPNSSSGPYGSQDSVHSSPEDGGGGRDRPVGGSPGGPRLVIGSLPAHLSPHMFGGFKCPVCSKFVSSDEMDLHLVMCLTKPRITYNEDVLSKDAGECAICLEELQQGDTIARLPCLCIYHKGCIDEWFEVNRSCPEHPSD
Q: B1 was tested. Which binding did it give?
A: binds

Reference: publication PMC10869362
